No constants are given. Whether binding was seen depends on the method and setting. Binding seen in cells or lysates may run through a third protein. Binding calls can cover weak binding; strength is not graded here. For some of these results: Sequences can lack the tags named with a protein.
What was measured:
[1] = molecular target: T1, GST-Vls^309-367 (Drosophila) (UniProt Q9VIP8); test: pull-down; GST-Vls^309-367 immobilised, in vitro translated S•Tag-Osk, synthetic Vls peptides added to the binding assay; only the target purified
T1 sequence: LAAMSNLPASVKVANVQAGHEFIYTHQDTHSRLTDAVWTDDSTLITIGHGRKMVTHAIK

[2] = molecular target: T2, Full length GST-Vls (367 amino acid residues) (Drosophila) (UniProt Q9VIP8); test: pull-down; GST-fusion proteins immobilised on glutathione sepharose; in vitro translated S•Tag-Osk added; 20 mM HEPES pH 7.8, 10% glycerol, 300 mM NaCl, 0.1% sodium deoxycholate, 0.1% NP40, 0.1% Triton X-100; 3 hr at room temperature; bound S•Tag-Osk detected with S-protein alkaline phosphatase conjugate; only the target purified
T2 sequence: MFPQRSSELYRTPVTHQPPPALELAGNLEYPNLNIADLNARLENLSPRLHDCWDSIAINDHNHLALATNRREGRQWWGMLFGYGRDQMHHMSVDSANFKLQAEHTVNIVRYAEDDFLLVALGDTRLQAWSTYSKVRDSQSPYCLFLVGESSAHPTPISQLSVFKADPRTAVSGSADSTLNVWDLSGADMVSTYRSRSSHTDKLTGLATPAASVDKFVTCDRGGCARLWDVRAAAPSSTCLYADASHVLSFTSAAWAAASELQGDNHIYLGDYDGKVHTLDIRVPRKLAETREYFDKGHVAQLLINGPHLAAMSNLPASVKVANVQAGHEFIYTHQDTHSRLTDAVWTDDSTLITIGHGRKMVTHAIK

[3] = molecular target: T1, GST-Vls^309-367 (Drosophila); test: as above
[4] = molecular target: S•Tag-short Osk isoform (full size) (Drosophila); test: pull-down; competition: synthetic Vls peptide added to the binding assay of in vitro translated S•Tag-Osk with GST-Vls^309-367; only the binder purified

Molecule: S•Tag-short Osk isoform (full size) (Drosophila)
- binding [1]: binds
- binding [2]: binds
- binding [3]: binds

Molecule: AAMSNLPASVKVANVQAGHEFIYTHQDTHSR (peptide, UniProt Q9VIP8 310-340) [synthetic peptide made of residues 310 to 340 of Vls]
- binding [4]: binds
